The values that follow come from PMC7819943, “Rice protein-binding microarrays: a tool to detect cis-acting elements near promoter regions in rice”.

Protein sequences, listed by entry. Tags and fused reporters are not part of them.
UniProt Q0JBA9, entry or part of it: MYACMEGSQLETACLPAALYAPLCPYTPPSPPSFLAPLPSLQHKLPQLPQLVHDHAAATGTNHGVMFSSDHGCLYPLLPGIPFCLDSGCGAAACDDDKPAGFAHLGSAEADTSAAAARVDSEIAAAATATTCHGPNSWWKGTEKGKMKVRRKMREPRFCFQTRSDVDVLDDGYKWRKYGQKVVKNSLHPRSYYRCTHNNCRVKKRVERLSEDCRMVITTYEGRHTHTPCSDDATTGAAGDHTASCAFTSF

The list shows a part of the results.

For the test, the target named is OsWRKY34 (Oryza sativa, UniProt Q0JBA9 1-250). As to the kind of experiment: protein-binding microarray (RPBM); PBS, 2% BSA, 51.3 ng/ul salmon testes DNA, 50 uM zinc acetate, 200 nM TF, 25 C, 1 h; high values mean tight binding. The conditions noted are these: protein: recombinant; tags: N-terminal polyhistidine and DsRed monomer fusion (pET32a); label: CyDye5-dUTP incorporated in the synthesized complementary strand; 3' TTTTT single-stranded linker to array surface; dsDNA, one strand shown. The gist of the method: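 An Axon 4000B scanner gave the binding signal as per-feature fluorescence intensity in arbitrary units. This followed washing of a custom Agilent array that had been incubated for 1 h at 25 °C with 200 nM protein in PBS, 2% BSA, salmon testes DNA and 50 µM zinc acetate. The proteins were transcription factors fused at the N-terminus to polyhistidine and DsRed, expressed in E. coli BL21-CodonPlus and purified on Ni–NTA.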
Turning to “TTTAACACATATTTGCATCAACAAATATCCTCTTATTGAACGGAGTCACCTAGTGCAG”, the binding signal is 8080 fluorescence intensity (a.u.). In the case of “GCGGCCAGGCCACCTCCAGCTCTTTTCACTCCTGGCTAACCGGAGTCACCTAGTGCAG” it was 9500 fluorescence intensity (a.u.); in that of “CCGGTATTTCTGTGGTTAGGGGACGATTTTGTAACTCGATCGGAGTCACCTAGTGCAG”, 8660 fluorescence intensity (a.u.). Turning to “AATCATATTTTTATTCTGTCTTTGTATAGTCACCTTGTGACGGAGTCACCTAGTGCAG”, the binding signal was 8360 fluorescence intensity (a.u.). On to “TTGCTTGTTGATTGATTCGTTTTTGTCAATTTTGAAGTTTCGGAGTCACCTAGTGCAG”, for which the binding signal was 8470 fluorescence intensity (a.u.). With “TCCTCCCCACTGCATCTGCCCGCCACTATTCTCGAGTCCCCGGAGTCACCTAGTGCAG”, the binding signal is 9940 fluorescence intensity (a.u.). Take “CACCGATAACTTTCTTGTTTTACTTACCCCTATCTTCATCCGGAGTCACCTAGTGCAG”: the binding signal is 8420 fluorescence intensity (a.u.). As for “TGCCTTTCTACACATACACCGGACATCTTTCTGAAATCTACGGAGTCACCTAGTGCAG”, the binding signal is 12100 fluorescence intensity (a.u.).

Take “ATCTTTTGAGTTTTATACATACAAATTTTGTCATTTTTATCGGAGTCACCTAGTGCAG”: the binding signal was 8090 fluorescence intensity (a.u.).

For the sequence “CTCCGTCCCTCCGTACCAGTTTAAATGCAGCCGTGGATTCCGGAGTCACCTAGTGCAG”, the binding signal was 8360 fluorescence intensity (a.u.). On to “ACTCCTGCCATTATCCATTCGCCCGTTCTCTCTCTCGCCTCGGAGTCACCTAGTGCAG”, for which the binding signal is 13800 fluorescence intensity (a.u.). Regarding “CAAGGACGAATCCAGTATAGGGGCGGTGGGGTCTCGAACCCGGAGTCACCTAGTGCAG”, the binding signal is 10400 fluorescence intensity (a.u.). For the sequence “ACATGTGCTATTTGTATGTTTTTGTGCGGACTACAATCAGCGGAGTCACCTAGTGCAG”, the binding signal was 8220 fluorescence intensity (a.u.).

“TCTCTACTCGATACACAGCAGCAGCAGCAGCCGCCTAAACCGGAGTCACCTAGTGCAG”: the binding signal is 8560 fluorescence intensity (a.u.).

Take “TTATTGCTCCTGGTTTTTTTTATATTGGGTAGGACCCAATCGGAGTCACCTAGTGCAG”: the binding signal was 8920 fluorescence intensity (a.u.). Regarding “GTGCCCCGGTTGCTCACATCACACCACGCTTGCTTCGCTTCGGAGTCACCTAGTGCAG”, the binding signal was 8570 fluorescence intensity (a.u.). Turning to “TATAACTTTCATACTGTACTTGTCATTCTCGGCCTGGATTCGGAGTCACCTAGTGCAG”, the binding signal was 12500 fluorescence intensity (a.u.).

As for “CGTCGCCGCCTCCGCCTCGCTCCGATCCCCATTCCGCGGTCGGAGTCACCTAGTGCAG”, the binding signal is 9810 fluorescence intensity (a.u.).

For the sequence “ATCTGATTGCCCTGTAGATTTTGCACCGACGACGTTTTTACGGAGTCACCTAGTGCAG”, the binding signal is 8600 fluorescence intensity (a.u.).

Regarding “AATTGACCCTTTCACTACCACATCATCAAAACCATCCATCCGGAGTCACCTAGTGCAG”, the binding signal is 9020 fluorescence intensity (a.u.). With “CTACCTTAGCACCTTGCCTCGCAGGTTTCACTGCCAGAACCGGAGTCACCTAGTGCAG”, the binding signal was 9240 fluorescence intensity (a.u.).

In the case of “ACCTCGTTCCTTGTGTCGTTATGCCGTCCCGTCTTCCACCCGGAGTCACCTAGTGCAG”, the binding signal is 10200 fluorescence intensity (a.u.). In the case of “ATCTCACATTCTCACTGTACAGTGCCGAACAACGATGGCTCGGAGTCACCTAGTGCAG” it was 8570 fluorescence intensity (a.u.); in that of “ACCATCTGTAATTATAAATTTATAATATGCTCATTTGACACGGAGTCACCTAGTGCAG”, 8570 fluorescence intensity (a.u.); in that of “GATTGATATGATCTTGCCCTGTTCTCAAGCCATAGCTATTCGGAGTCACCTAGTGCAG”, 9050 fluorescence intensity (a.u.). As to “AACTTCCAACTTTTCCGTCTCATCATTTCAATTTCAATTACGGAGTCACCTAGTGCAG”, the binding signal is 11200 fluorescence intensity (a.u.). “CACTCACTCACTCACTGACAGTATCGGTTGCCTAGCTATACGGAGTCACCTAGTGCAG”: the binding signal was 11000 fluorescence intensity (a.u.). Consider “ACAGCCTTAACAACTGAACTGAATATGTACGTGTGACTCCCGGAGTCACCTAGTGCAG”, for which the binding signal was 9590 fluorescence intensity (a.u.).

Regarding “GAGGATGAGGAGATTATTATGTTCTGGTTGCCTGCCCTATCGGAGTCACCTAGTGCAG”, the binding signal is 8490 fluorescence intensity (a.u.). For the sequence “ACCGCCTTTTCGCCTGTCTGTTTTATAACTCACCATTATACGGAGTCACCTAGTGCAG”, the binding signal is 9080 fluorescence intensity (a.u.). Turning to “GACCCTTTTTATCCCGGTGCATCGTGTGCAGCAAACTTTTCGGAGTCACCTAGTGCAG”, the binding signal is 8450 fluorescence intensity (a.u.). As to “AAACGAGCCTTTCATCTGCTTCGCCCGCTATCTCCCACAACGGAGTCACCTAGTGCAG”, the binding signal was 10800 fluorescence intensity (a.u.). In the case of “TCCTATGCCTGCAGCCTGTATCAAAAAATTTTCACAATGTCGGAGTCACCTAGTGCAG” it was 8480 fluorescence intensity (a.u.); in that of “ATCCATGCTCTTACCGTCATATTTTCCATAATTTCACTGTCGGAGTCACCTAGTGCAG”, 11700 fluorescence intensity (a.u.); in that of “TCTATTCCTACGTTTTTCTCATTTATCTGTTTTCTCAATCCGGAGTCACCTAGTGCAG”, 15500 fluorescence intensity (a.u.).

On to “AATTGGTCCTACCCTAATATACGCTTTTTTTTATAGTTCACGGAGTCACCTAGTGCAG”, for which the binding signal was 8560 fluorescence intensity (a.u.). In the case of “CTCCAATGCTACATGCCAAGTCATCCGGACTAAACGCGTCCGGAGTCACCTAGTGCAG” it was 9910 fluorescence intensity (a.u.). With “CTTCATTTCCAGGTCATGGGCCTTCTCCGGCTTTAATAGACGGAGTCACCTAGTGCAG”, the binding signal was 8530 fluorescence intensity (a.u.). In the case of “AGTCCAGCGAGACCCCATCGCCGCCCACCATCCCTCAGTCCGGAGTCACCTAGTGCAG” it was 8780 fluorescence intensity (a.u.). For the sequence “GGCCATCATCATTTGTTCCTCATCTTACTCTAGCTTCTCCCGGAGTCACCTAGTGCAG”, the binding signal was 9470 fluorescence intensity (a.u.).

As to “CCTTAGGACTTATTATCCCTATTTTTACTGCTTCTTAATACGGAGTCACCTAGTGCAG”, the binding signal was 8410 fluorescence intensity (a.u.). In the case of “CTCATTCTTTTTTCCTTTGATTTGATTCTTCGCTGCTAACCGGAGTCACCTAGTGCAG” it was 8460 fluorescence intensity (a.u.).
